# Cleaved PARP in drug-treated melanoma cells

Drugs:
T0901317, 7000 nM: O=S(=O)(c1ccccc1)N(CC(F)(F)F)c1ccc(C(O)(C(F)(F)F)C(F)(F)F)cc1
A-769662, 10000 nM: N#Cc1c(O)c2c(-c3ccc(-c4ccccc4O)cc3)csc2[nH]c1=O
lestaurtinib, 20 nM: C[C@]12O[C@H](C[C@]1(O)CO)n1c3ccccc3c3c4c(c5c6ccccc6n2c5c31)CNC4=O
selumetinib, 75 nM: Cn1cnc2c(F)c(Nc3ccc(Br)cc3Cl)c(C(=O)NOCCO)cc21
FH535, 5000 nM: Cc1cc([N+](=O)[O-])ccc1NS(=O)(=O)c1cc(Cl)ccc1Cl
vorinostat, 400 nM: O=C(CCCCCCC(=O)Nc1ccccc1)NO
tanespimycin, 10 nM: C=CCNC1=C2C[C@@H](C)C[C@H](OC)[C@H](O)[C@@H](C)/C=C(\C)[C@H](OC(N)=O)[C@@H](OC)/C=C\C=C(/C)C(=O)NC(=CC1=O)C2=O
VX-702, 2000 nM: NC(=O)c1ccc(N(C(N)=O)c2c(F)cccc2F)nc1-c1ccc(F)cc1F
indole-3-carbinol, 4000 nM: OCc1c[nH]c2ccccc12
fludarabine, 1000 nM: Nc1nc(F)nc2c1ncn2[C@@H]1O[C@H](CO)[C@@H](O)[C@@H]1O
pioglitazone, 10000 nM: CCc1ccc(CCOc2ccc(CC3SC(=O)NC3=O)cc2)nc1 (centres unmarked)
perifosine, 2000 nM: CCCCCCCCCCCCCCCCCCOP(=O)([O-])OC1CC[N+](C)(C)CC1
NVP-TAE684, 400 nM: COc1cc(N2CCC(N3CCN(C)CC3)CC2)ccc1Nc1ncc(Cl)c(Nc2ccccc2S(=O)(=O)C(C)C)n1
OSI-906, 2000 nM: C[C@]1(O)C[C@@H](c2nc(-c3ccc4ccc(-c5ccccc5)nc4c3)c3c(N)nccn32)C1
vismodegib, 5000 nM: CS(=O)(=O)c1ccc(C(=O)Nc2ccc(Cl)c(-c3ccccn3)c2)c(Cl)c1
dovitinib, 500 nM: CN1CCN(c2ccc3nc(-c4c(N)c5c(F)cccc5[nH]c4=O)[nH]c3c2)CC1
sunitinib, 2000 nM: CCN(CC)CCNC(=O)c1c(C)[nH]c(/C=C2\C(=O)Nc3ccc(F)cc32)c1C

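The test systems are human melanoma cell lines, treated with two drugs together for 72 h and then stained and imaged. Values are the share of nuclei positive for cleaved PARP as a percentage of the same share in the DMSO control: 100 is the control level, higher means more apoptosis. Concentrations were fixed for each drug; these are the higher of two levels. The file gives one value for each pair and line, without errors, so small differences may be noise. The marker varies much from line to line, for technical or biological reasons.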
This is part of the screen, not chosen by result.
An entry leaves out what has no value listed here.
A dash means that no value is listed here.

Drugs,RVH-421,WM1716,WM115,A375,MEL-HO,A2058,RPMI-7951,A101D,SK-MEL-30,MeWo,IST-MEL1,SK-MEL-5,C32,MZ2-MEL,WM3619
indole-3-carbinol + dovitinib,62.3,100,44.4,129,158,352,86.1,67.0,72.2,145,93.6,113,52.1,151,145
vorinostat + fludarabine,51.2,67.6,112,-,79.7,59.0,158,212,800,104,96.8,4040,184,43.1,143
selumetinib + lestaurtinib,82.6,161,217,186,44.2,122,135,113,301,79.4,93.2,485,109,260,146
VX-702 + dovitinib,386,54.6,121,23.1,188,496,276,53.4,47.5,493,748,79.9,34.2,113,100
fludarabine + pioglitazone,83.0,97.0,119,306,123,78.7,86.9,66.1,612,99.6,142,1240,83.4,50.8,101
VX-702 + sunitinib,133,115,613,95.8,69.8,222,86.3,101,165,50.0,88.2,188,126,49.6,144
FH535 + T0901317,176,51.0,142,616,49.1,168,107,145,114,243,90.8,360,105,133,142
selumetinib + T0901317,180,108,38.3,208,127,89.3,28.9,175,145,228,431,185,97.4,86.9,162
VX-702 + tanespimycin,66.0,30.6,422,109,131,175,440,178,145,104,76.7,214,237,59.2,138
OSI-906 + sunitinib,50.6,16.7,77.6,97.7,144,145,121,98.8,257,71.8,244,140,102,22.2,156
T0901317 + NVP-TAE684,99.0,91.0,236,121,24.3,232,308,147,37.3,119,87.3,89.9,429,94.8,261
perifosine + sunitinib,136,69.7,155,62.6,137,168,1030,105,117,99.9,75.6,179,101,202,75.2
vismodegib + selumetinib,234,113,136,180,280,146,38.4,195,164,149,417,255,138,620,161
perifosine + selumetinib,121,108,59.8,93.0,278,120,319,108,111,76.6,199,146,187,160,128
A-769662 + vorinostat,115,59.0,115,50.5,53.4,112,198,71.1,113,102,119,333,79.5,58.0,154
perifosine + T0901317,188,66.5,137,83.1,104,111,273,154,109,90.2,54.5,116,100,69.2,105
dovitinib + OSI-906,70.1,54.5,223,200,96.9,817,65.4,117,130,241,201,204,31.0,174,127
pioglitazone + perifosine,199,982,37.7,469,235,412,703,182,195,175,103,65.2,65.5,41.1,216
tanespimycin + pioglitazone,136,161,91.0,59.8,91.9,116,150,84.5,67.2,90.5,138,200,768,214,174
vorinostat + tanespimycin,48.9,196,947,-,88.4,124,159,128,87.4,475,94.0,345,901,162,182
dovitinib + A-769662,140,215,84.2,94.6,50.2,669,242,79.7,56.5,289,116,129,111,221,143
A-769662 + pioglitazone,102,5.0,114,91.8,94.2,141,24.6,58.6,46.2,24.8,134,148,205,33.7,110
tanespimycin + perifosine,107,46.4,702,83.2,56.6,326,650,166,164,219,152,101,649,98.7,181
pioglitazone + lestaurtinib,69.3,104,34.9,77.4,131,127,106,144,62.2,143,82.9,172,85.3,192,99.1
selumetinib + fludarabine,115,75.3,173,265,103,121,147,166,1200,47.2,89.6,631,61.5,187,155
tanespimycin + NVP-TAE684,257,109,4860,146,95.2,404,318,96.2,62.2,294,152,156,1510,295,163
indole-3-carbinol + vismodegib,51.3,86.6,95.5,64.2,45.4,107,119,59.5,204,87.3,69.7,36.6,189,163,102
OSI-906 + vismodegib,74.8,87.1,50.3,116,112,48.0,233,137,239,132,30.5,48.9,111,105,96.2
vismodegib + perifosine,119,60.7,82.6,291,183,145,259,139,118,90.3,76.1,71.5,235,117,85.2
T0901317 + tanespimycin,80.7,128,351,94.1,90.5,55.3,1020,98.2,58.7,233,73.3,322,895,133,145
VX-702 + fludarabine,77.3,75.0,149,160,152,64.8,105,74.2,1250,104,102,2810,250,97.1,89.8
fludarabine + indole-3-carbinol,92.5,69.9,188,423,211,88.3,113,217,2230,109,87.6,4780,108,189,117
perifosine + dovitinib,169,118,235,117,53.8,587,281,108,60.8,211,110,47.4,87.3,63.8,132
vismodegib + vorinostat,116,189,85.4,-,160,105,115,38.8,283,58.0,73.1,54.7,44.3,20.5,113
VX-702 + FH535,96.9,60.8,51.8,456,76.8,184,51.4,142,152,57.2,428,129,88.1,160,233
pioglitazone + sunitinib,86.5,24.2,47.4,52.4,171,537,110,104,169,58.0,243,184,95.4,28.1,180
OSI-906 + lestaurtinib,105,73.3,389,190,46.0,228,81.0,97.3,56.0,111,47.3,440,25.8,70.9,126
VX-702 + OSI-906,114,77.0,231,117,74.3,150,209,71.9,121,67.1,104,69.0,65.1,174,109
tanespimycin + sunitinib,111,71.3,2100,24.3,201,431,560,188,372,689,414,172,376,204,180

Repeated from the top, 4 entries:

{"drugs": "indole-3-carbinol + dovitinib", "RVH-421": 62.3, "WM1716": 100, "WM115": 44.4, "A375": 129, "MEL-HO": 158, "A2058": 352, "RPMI-7951": 86.1, "A101D": 67.0, "SK-MEL-30": 72.2, "MeWo": 145, "IST-MEL1": 93.6, "SK-MEL-5": 113, "C32": 52.1, "MZ2-MEL": 151, "WM3619": 145}
{"drugs": "vorinostat + fludarabine", "RVH-421": 51.2, "WM1716": 67.6, "WM115": 112, "MEL-HO": 79.7, "A2058": 59.0, "RPMI-7951": 158, "A101D": 212, "SK-MEL-30": 800, "MeWo": 104, "IST-MEL1": 96.8, "SK-MEL-5": 4040, "C32": 184, "MZ2-MEL": 43.1, "WM3619": 143}
{"drugs": "selumetinib + lestaurtinib", "RVH-421": 82.6, "WM1716": 161, "WM115": 217, "A375": 186, "MEL-HO": 44.2, "A2058": 122, "RPMI-7951": 135, "A101D": 113, "SK-MEL-30": 301, "MeWo": 79.4, "IST-MEL1": 93.2, "SK-MEL-5": 485, "C32": 109, "MZ2-MEL": 260, "WM3619": 146}
{"drugs": "VX-702 + dovitinib", "RVH-421": 386, "WM1716": 54.6, "WM115": 121, "A375": 23.1, "MEL-HO": 188, "A2058": 496, "RPMI-7951": 276, "A101D": 53.4, "SK-MEL-30": 47.5, "MeWo": 493, "IST-MEL1": 748, "SK-MEL-5": 79.9, "C32": 34.2, "MZ2-MEL": 113, "WM3619": 100}

Values as published with doi:10.1371/journal.pone.0140310, rounded.